Data reported in US20220348648A1.
Results are given in words; binding and its absence hold for the method and conditions named. Some entries that bind do so weakly or less than the wild type.

Amino acid sequences for entries named in this document (tags omitted). Residues count along the entry.
UniProt Q9NYJ7, residues 27-492: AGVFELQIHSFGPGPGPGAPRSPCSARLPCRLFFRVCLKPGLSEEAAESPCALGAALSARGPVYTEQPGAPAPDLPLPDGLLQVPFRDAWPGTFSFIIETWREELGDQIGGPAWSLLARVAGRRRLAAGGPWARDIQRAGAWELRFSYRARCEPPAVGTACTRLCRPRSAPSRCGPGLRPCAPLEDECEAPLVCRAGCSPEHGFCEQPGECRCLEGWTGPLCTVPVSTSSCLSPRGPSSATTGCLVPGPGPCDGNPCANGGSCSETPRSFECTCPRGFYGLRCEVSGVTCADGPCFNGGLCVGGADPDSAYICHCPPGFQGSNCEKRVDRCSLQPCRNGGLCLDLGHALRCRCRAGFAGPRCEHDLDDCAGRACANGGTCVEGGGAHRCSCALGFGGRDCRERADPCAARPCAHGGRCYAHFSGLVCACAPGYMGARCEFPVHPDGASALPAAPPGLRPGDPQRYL

Columns and labels:
[1] = target: DLL3 (as tested in FIG. 7) (UniProt Q9NYJ7); assay: FIG. 7 legend; assay not described
[2] = target: Histidine-tagged DLL3 antigen (DLL3-His) (Homo sapiens (Human)) (UniProt Q9NYJ7); assay: Carterra array SPR epitope binning with DLL3-His
[3] = target: DLL3 (as tested in FIG. 7) (UniProt Q9NYJ7); assay: FIG. 7; assay not described

Measured: binding

B1: 2-C8-A (antibody, V domains shown)
VH: EVQLVESGGGLVQPGGSQRLSCAASGFTFSSYWMNWVRQAPGKGLEWVANIKEDGSEKYYVDSVKGRFTISRDNAKNSLYLQMNSLRAEDTAVYYCARDPGWAPFDYWGQGTLVTVSS
VL: DIQMSQSPSSLSASVGDRVTITCRASQGISNYLAWFQQKPGKAPKSLIYAASSLQSGVPSKFSGSGSGTDFTLAISSLQPEDFATYYCQQYNSFPYTFGQGTTLEIK
binds: all assays above
